Values from PubChem BioAssay AID743121 (NCATS, 2013)
Test: 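Knock-downs that sensitise breast cancer cells to camptothecin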 (primary screen). System: MDA-MB-231 cells, a human breast cancer line. Reagent: single siRNA against human genes, 20 nM siRNA (0.8 pmol per well). Timing: 120 h (drug added 48 h after transfection, read 72 h later). Challenge: camptothecin 20 nM (about EC30) for 72 h; vehicle 0.1% DMSO in parallel plates. Measurement: 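CellTiter-Glo ATP signal, scaled to control siRNA as percent viability; sensitisation given as log2 of untreated divided by camptothecin-treated viability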. Scale: log2 vehicle/camptothecin viability: higher = stronger sensitisation to camptothecin. Hit rule: 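Active genes have an RSA gene-level p-value below 0.001, computed from the ratios of their separate siRNAs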.
In all, the deposit lists about 26,000 reagents; this is a part drawn at random. In the full data, 167 (0.63%) got an active call. 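Calls are per gene from RSA p-values that are not deposited; an individual active-marked siRNA can sensitise only weakly.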 The numbers tell different reagents against one gene apart. Not all columns of the deposit are shown.

CHUK (GeneID 1147) #1 scored log2 vehicle/camptothecin viability -0.336; inactive.
With knock-down of CHUK (GeneID 1147) #2, the screen gave log2 vehicle/camptothecin viability -0.131; inactive.
CHUK (GeneID 1147) #3 showed log2 vehicle/camptothecin viability -0.386; inactive.
CHUK (GeneID 1147) #4 scored log2 vehicle/camptothecin viability -0.218; inactive.
After knock-down of SLC25A14 (GeneID 9016) #1, the record shows log2 vehicle/camptothecin viability -0.185; inactive.
Depletion of SLC25A14 (GeneID 9016) #2 gave: log2 vehicle/camptothecin viability 0.0131; inactive.
After knock-down of SLC25A14 (GeneID 9016) #3 the results were log2 vehicle/camptothecin viability -0.539; inactive.
Silencing of SLC25A14 (GeneID 9016) #4 resulted in: log2 vehicle/camptothecin viability 0.00496; inactive.
Depletion of KCNE4 (GeneID 23704) #1 came out at: log2 vehicle/camptothecin viability 0.422; inactive.
For KCNE4 (GeneID 23704) #2 the deposit lists log2 vehicle/camptothecin viability -0.182; inactive.
Depletion of KCNE4 (GeneID 23704) #3 came out at: log2 vehicle/camptothecin viability -0.189; inactive.
PIGR (GeneID 5284) #1 gave log2 vehicle/camptothecin viability 0.775; inactive.
Against PIGR (GeneID 5284) #2, the values are log2 vehicle/camptothecin viability -0.33; inactive.
Silencing of PIGR (GeneID 5284) #3 resulted in: log2 vehicle/camptothecin viability 0.00753; inactive.
PIGR (GeneID 5284) #4 scored log2 vehicle/camptothecin viability -0.0419; inactive.

2 entries from above, ordered by “log2 vehicle/camptothecin viability”, low to high:
CHUK (GeneID 1147) #3: log2 vehicle/camptothecin viability = -0.386; call = inactive
CHUK (GeneID 1147) #4: log2 vehicle/camptothecin viability = -0.218; call = inactive
